The target in assay [1] is p53 (human (endogenous in HepG2 and QGY-7703)) (UniProt P04637). The assay can be described thus: co-IP.
The target is the same in assay [2]. The assay can be described thus: co-IP. This is another data set of the same source.

For one molecule, binding results are on record in paper doi:10.1101/373761.

Where two headings read alike, the source gives them in different places. Results are given in words; binding and its absence hold for the method and conditions named. In cells and extracts the contact can be indirect. Some entries that bind do so weakly or less than the wild type.

B1: glycogen synthase 2 (GYS2) (enzyme, UniProt P54840 1-703)
chain: MLRGRSLSVTSLGGLPQWEVEELPVEELLLFEVAWEVTNKVGGIYTVIQTKAKTTADEWGENYFLIGPYFEHNMKTQVEQCEPVNDAVRRAVDAMNKHGCQVHFGRWLIEGSPYVVLFDIGYSAWNLDRWKGDLWEACSVGIPYHDREANDMLIFGSLTAWFLKEVTDHADGKYVVAQFHEWQAGIGLILSRARKLPIATIFTTHATLLGRYLCAANIDFYNHLDKFNIDKEAGERQIYHRYCMERASVHCAHVFTTVSEITAIEAEHMLKRKPDVVTPNGLNVKKFSAVHEFQNLHAMYKARIQDFVRGHFYGHLDFDLEKTLFLFIAGRYEFSNKGADIFLESLSRLNFLLRMHKSDITVMVFFIMPAKTNNFNVETLKGQAVRKQLWDVAHSVKEKFGKKLYDALLRGEIPDLNDILDRDDLTIMKRAIFSTQRQSLPPVTTHNMIDDSTDPILSTIRRIGLFNNRTDRVKVILHPEFLSSTSPLLPMDYEEFVRGCHLGVFPSYYEPWGYTPAECTVMGIPSVTTNLSGFGCFMQEHVADPTAYGIYIVDRRFRSPDDSCNQLTKFLYGFCKQSRRQRIIQRNRTERLSDLLDWRYLGRYYQHARHLTLSRAFPDKFHVELTSPPTTEGFKYPRPSSVPPSPSGSQASSPQSSDVEDEVEDERYDEEEEAERDRLNIKSPFSLSHVPHGKKKLHGEYKN
B1: the binding entry in assay [1] and in assay [2] was “binds” each time.
